# No constants are given. Whether binding was seen depends on the method and setting.
# By UniProt entry, the sequences of proteins in these tests, tags left out. Where a name states a change or a piece, a line headed by the entry shows the natural chain unless it says otherwise. Residues count along the entry.
# UniProt Q07954: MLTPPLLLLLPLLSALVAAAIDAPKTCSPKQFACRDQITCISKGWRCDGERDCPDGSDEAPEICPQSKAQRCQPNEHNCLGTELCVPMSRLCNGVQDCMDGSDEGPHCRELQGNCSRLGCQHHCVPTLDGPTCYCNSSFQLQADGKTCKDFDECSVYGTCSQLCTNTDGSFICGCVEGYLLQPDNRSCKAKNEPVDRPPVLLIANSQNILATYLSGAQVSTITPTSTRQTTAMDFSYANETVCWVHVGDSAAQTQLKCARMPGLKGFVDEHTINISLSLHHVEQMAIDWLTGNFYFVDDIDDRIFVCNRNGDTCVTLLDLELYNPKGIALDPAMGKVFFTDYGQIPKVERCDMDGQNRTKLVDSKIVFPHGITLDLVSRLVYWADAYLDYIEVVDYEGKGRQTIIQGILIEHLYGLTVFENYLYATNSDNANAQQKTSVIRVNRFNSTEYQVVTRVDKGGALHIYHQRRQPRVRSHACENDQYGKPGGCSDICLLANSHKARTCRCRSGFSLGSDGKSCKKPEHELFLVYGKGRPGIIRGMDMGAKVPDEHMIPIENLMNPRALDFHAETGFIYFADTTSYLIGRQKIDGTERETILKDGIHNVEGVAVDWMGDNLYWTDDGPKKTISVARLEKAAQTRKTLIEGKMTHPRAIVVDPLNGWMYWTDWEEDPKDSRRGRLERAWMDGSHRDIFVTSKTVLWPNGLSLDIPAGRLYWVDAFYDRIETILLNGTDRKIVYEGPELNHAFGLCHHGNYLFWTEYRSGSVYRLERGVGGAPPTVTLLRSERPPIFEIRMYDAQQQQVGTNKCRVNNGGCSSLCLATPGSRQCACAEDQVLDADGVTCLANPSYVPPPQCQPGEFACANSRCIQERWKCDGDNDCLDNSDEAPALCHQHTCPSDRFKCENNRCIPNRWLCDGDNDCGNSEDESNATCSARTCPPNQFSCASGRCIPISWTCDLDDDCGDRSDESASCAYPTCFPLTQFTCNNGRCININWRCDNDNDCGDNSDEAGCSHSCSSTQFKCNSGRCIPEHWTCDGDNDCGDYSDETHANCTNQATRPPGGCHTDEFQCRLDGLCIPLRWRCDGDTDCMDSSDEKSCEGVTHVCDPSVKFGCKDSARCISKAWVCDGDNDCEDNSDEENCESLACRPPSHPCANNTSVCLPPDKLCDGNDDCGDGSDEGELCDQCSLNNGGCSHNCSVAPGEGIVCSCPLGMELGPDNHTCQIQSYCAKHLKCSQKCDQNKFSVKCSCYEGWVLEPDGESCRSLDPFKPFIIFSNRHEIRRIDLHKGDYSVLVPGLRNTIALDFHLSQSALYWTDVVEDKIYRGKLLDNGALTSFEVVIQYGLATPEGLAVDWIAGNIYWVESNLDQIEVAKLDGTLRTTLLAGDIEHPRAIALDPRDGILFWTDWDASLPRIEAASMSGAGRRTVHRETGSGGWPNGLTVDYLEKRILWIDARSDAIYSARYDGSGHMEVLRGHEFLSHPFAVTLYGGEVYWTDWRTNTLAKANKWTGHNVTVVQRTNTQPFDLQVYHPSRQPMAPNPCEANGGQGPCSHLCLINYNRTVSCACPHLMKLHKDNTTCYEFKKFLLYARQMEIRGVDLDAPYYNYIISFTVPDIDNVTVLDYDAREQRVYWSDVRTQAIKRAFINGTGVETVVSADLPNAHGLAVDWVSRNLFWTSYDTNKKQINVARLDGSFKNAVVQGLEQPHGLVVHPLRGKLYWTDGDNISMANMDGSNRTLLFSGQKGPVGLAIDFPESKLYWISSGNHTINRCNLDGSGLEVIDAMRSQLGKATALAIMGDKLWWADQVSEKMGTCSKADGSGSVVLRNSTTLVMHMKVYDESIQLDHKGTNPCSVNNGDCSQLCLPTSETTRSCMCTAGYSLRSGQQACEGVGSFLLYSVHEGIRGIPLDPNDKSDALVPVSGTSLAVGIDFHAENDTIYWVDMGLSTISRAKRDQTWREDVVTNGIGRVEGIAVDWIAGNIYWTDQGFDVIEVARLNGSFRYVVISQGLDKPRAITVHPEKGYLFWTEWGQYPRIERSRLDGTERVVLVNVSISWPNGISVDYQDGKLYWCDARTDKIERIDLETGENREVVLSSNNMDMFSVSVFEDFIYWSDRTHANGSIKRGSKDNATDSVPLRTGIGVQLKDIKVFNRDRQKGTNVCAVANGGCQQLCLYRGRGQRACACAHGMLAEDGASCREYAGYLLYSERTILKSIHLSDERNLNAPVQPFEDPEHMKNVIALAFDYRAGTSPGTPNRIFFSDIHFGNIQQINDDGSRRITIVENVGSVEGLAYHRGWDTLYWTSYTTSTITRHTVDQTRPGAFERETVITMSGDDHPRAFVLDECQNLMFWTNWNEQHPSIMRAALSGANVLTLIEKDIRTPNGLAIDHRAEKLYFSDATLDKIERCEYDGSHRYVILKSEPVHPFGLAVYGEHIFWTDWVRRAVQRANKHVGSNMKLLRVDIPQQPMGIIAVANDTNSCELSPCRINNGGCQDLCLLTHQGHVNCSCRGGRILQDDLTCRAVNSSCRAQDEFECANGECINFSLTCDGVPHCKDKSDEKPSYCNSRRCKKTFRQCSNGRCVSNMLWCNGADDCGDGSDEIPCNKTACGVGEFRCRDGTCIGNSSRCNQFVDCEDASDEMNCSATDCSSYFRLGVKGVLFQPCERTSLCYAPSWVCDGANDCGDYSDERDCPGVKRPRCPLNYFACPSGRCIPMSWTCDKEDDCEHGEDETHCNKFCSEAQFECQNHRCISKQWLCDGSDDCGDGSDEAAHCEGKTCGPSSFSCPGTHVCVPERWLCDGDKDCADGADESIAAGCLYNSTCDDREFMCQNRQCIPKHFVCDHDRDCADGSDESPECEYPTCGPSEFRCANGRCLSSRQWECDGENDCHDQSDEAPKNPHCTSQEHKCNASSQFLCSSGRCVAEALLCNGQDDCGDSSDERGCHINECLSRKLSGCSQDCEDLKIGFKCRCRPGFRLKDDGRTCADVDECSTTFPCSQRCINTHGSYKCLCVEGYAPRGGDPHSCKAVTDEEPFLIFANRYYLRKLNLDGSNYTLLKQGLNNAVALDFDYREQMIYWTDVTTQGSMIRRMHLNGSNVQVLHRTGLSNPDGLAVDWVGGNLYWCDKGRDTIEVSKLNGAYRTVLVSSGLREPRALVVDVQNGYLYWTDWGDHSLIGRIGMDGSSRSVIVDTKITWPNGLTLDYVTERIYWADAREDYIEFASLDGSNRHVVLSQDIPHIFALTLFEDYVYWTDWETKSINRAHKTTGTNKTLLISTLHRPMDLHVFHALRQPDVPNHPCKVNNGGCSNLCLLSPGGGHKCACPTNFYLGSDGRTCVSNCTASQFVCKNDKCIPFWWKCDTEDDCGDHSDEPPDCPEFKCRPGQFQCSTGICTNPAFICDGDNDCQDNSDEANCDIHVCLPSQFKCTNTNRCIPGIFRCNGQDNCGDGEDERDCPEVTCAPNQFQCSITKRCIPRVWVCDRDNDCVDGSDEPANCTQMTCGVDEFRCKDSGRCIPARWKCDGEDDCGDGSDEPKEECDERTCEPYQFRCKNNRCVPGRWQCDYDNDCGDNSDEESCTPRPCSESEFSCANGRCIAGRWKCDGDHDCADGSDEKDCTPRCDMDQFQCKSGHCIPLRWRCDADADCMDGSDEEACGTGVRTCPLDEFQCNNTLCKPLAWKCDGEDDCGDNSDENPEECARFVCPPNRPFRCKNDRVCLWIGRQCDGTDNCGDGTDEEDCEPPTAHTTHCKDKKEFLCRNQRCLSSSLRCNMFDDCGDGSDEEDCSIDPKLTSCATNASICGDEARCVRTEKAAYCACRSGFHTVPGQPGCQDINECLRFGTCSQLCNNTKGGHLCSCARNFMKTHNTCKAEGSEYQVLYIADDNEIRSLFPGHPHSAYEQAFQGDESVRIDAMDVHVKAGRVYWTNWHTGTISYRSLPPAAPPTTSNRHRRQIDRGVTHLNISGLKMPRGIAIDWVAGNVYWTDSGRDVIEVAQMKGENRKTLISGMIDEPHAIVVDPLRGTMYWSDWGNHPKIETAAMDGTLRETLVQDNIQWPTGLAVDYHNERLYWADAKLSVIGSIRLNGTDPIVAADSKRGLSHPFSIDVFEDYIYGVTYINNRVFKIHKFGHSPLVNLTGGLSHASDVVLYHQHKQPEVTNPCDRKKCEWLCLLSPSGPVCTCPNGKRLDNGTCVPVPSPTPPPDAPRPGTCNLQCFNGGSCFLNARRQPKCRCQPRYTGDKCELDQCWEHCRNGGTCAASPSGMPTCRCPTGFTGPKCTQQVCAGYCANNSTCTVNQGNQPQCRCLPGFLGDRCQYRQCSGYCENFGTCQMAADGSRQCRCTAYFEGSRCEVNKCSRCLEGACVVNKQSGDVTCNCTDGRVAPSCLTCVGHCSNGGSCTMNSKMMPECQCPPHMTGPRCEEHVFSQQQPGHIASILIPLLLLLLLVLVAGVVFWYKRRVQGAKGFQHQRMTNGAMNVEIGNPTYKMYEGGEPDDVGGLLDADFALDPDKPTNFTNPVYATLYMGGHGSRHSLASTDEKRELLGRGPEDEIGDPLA
# UniProt P02769, residues 25-607: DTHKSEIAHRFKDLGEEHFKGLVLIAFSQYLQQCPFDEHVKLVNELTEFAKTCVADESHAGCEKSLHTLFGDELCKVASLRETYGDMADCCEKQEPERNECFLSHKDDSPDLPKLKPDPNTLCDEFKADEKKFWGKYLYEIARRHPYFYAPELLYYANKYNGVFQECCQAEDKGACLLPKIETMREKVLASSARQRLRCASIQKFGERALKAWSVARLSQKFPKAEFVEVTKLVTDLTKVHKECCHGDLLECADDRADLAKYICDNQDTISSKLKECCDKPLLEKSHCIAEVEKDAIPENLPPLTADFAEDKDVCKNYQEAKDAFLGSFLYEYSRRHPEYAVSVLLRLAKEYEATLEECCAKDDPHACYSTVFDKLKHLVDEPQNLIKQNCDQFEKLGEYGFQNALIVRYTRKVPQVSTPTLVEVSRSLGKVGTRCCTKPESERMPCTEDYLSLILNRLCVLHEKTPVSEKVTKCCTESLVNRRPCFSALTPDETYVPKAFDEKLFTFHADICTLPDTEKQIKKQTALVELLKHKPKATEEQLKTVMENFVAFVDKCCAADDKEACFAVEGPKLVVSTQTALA
# Target: low-density lipoprotein receptor-related protein 1 (LRP-1) (UniProt Q07954)
# Test: SPR; BIAcore T200; LRP-1 immobilised on a CM5 chip by amine coupling (3000 RU); 25 °C; 150 mM NaCl, 10 mM CaCl2, 50 mM Tris-HCl, 0.01% Tween-20, pH 7.5; 30 μl/min; ligands or pre-formed complexes injected; one-site binding model; triplicate; both purified
substance,measurement,value
BSA (from UniProt P02769 25-607),binding,no binding (tested: up to 2 μM)
